The record followed here is PMC11247502.

No constants are given. Whether binding was seen depends on the method and setting. Binding seen in cells or lysates may run through a third protein. A yes stands for co-enrichment or nearness to the bait. Other partners may have been found.

In the assay the target is EGFP-tagged human ATP1A3 fragment consisting of an intracellular loop (ICL), two transmembrane (T) domains and an extracellular loop (E) (ICL-TET-GFP) (human) (UniProt P13637). The assay is described as follows: affinity purification with mass spectrometry; Lysate of Neuro2a cells stably expressing ICL-TET-GFP (GFP as control); anti-GFP antibody magnetic beads, overnight at 4°C; 0.5% Triton X-100, 150 mM NaCl, 20 mM Tris-HCl pH 7.5, 2 mM EDTA; 18 Coomassie bands cut, in-gel trypsin digestion, LC-MS/MS.

B1: ataxia-related protein ATXN2 (protein, UniProt O70305 1-1285)
chain: MRSSTAAVQRPAAGDPEPRRPAGWAARRSLPRTARRGGRGGAVAYPSAGPPPRGPGAPPRGPRSPPCASDCFGSNGHGASRPGSRRLLGVCGPPRPFVVVLLALAPAATPARACPPGVRASPPRSGVSSSARPAPGCPRPACEPVYGPLTMSLKPQPQPPAPATGRKPGGGLLSSPGAAPASAAVTSASVVPAPAAPVASSSAAAGGGRPGLGRGRNSSKGLPQPTISFDGIYANVRMVHILTSVVGSKCEVQVKNGGIYEGVFKTYSPKCDLVLDAAHEKSTESSSGPKREEIMESVLFKCSDFVVVQFKDTDSSYARRDAFTDSALSAKVNGEHKEKDLEPWDAGELTASEELELENDVSNGWDPNDMFRYNEENYGVVSTYDSSLSSYTVPLERDNSEEFLKREARANQLAEEIESSAQYKARVALENDDRSEEEKYTAVQRNCSDREGHGPNTRDNKYIPPGQRNREVLSWGSGRQSSPRMGQPGPGSMPSRAASHTSDFNPNAGSDQRVVNGGVPWPSPCPSHSSRPPSRYQSGPNSLPPRAATHTRPPSRPPSRPSRPPSHPSAHGSPAPVSTMPKRMSSEGPPRMSPKAQRHPRNHRVSAGRGSMSSGLEFVSHNPPSEAAAPPVARTSPAGGTWSSVVSGVPRLSPKTHRPRSPRQSSIGNSPSGPVLASPQAGIIPAEAVSMPVPAASPTPASPASNRALTPSIEAKDSRLQDQRQNSPAGSKENVKASETSPSFSKADNKGMSPVVSEHRKQIDDLKKFKNDFRLQPSSTSESMDQLLSKNREGEKSRDLIKDKTEASAKDSFIDSSSSSSNCTSGSSKTNSPSISPSMLSNAEHKRGPEVTSQGVQTSSPACKQEKDDREEKKDTTEQVRKSTLNPNAKEFNPRSFSQPKPSTTPTSPRPQAQPSPSMVGHQQPAPVYTQPVCFAPNMMYPVPVSPGVQPLYPIPMTPMPVNQAKTYRAGKVPNMPQQRQDQHHQSTMMHPASAAGPPIVATPPAYSTQYVAYSPQQFPNQPLVQHVPHYQSQHPHVYSPVIQGNARMMAPPAHAQPGLVSSSAAQFGAHEQTHAMYACPKLPYNKETSPSFYFAISTGSLAQQYAHPNAALHPHTPHPQPSATPTGQQQSQHGGSHPAPSPVQHHQHQAAQALHLASPQQQSAIYHAGLAPTPPSMTPASNTQSPQSSFPAAQQTVFTIHPSHVQPAYTTPPHMAHVPQAHVQSGMVPSHPTAHAPMMLMTTQPPGPKAALAQSALQPIPVSTTAHFPYMTHPSVQAHHQQQL
Consider B1, for which the binding entry is on record as “binds”.
